Measured data: PubChem BioAssay AID1053208 (Peter MacCallum Cancer Centre, 2014)
Shown is an unselected part of about 17,000 reagents tested. Over the whole deposit, 788 (4.7%) got an active call. 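Calls rest on z-score classes alone; an extra cut-off of viability at most 70% of control was not applied to them.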 Entries without a mark were called inactive. Not all columns of the deposit are shown.

Test: 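Find knock-downs that sensitise mouse osteosarcoma cells to doxorubicin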 (primary screen)
Cells: mouse osteosarcoma cells, early-passage culture from an engineered mouse model of fibroblastic bone tumour
Reagents: siRNA pool against mouse genes, 40 nM
Time to read-out: about 120 h (48 h before drug, then 72 h with drug)
Conditions: doxorubicin 100 nM for 72 h, roughly 30-40% inhibitory dose
Measured: 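Viability read as ATP luminescence after 72 h of 100 nM doxorubicin or none, duplicate wells averaged, scaled to non-targeting siRNA, then expressed as robust z-scores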
Reading the numbers: viability z-score with doxorubicin: higher = more viable cells under doxorubicin; viability z-score without drug: higher = more viable cells with knock-down alone
Active means: 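a pool counts as active when its viability z-score with doxorubicin is -2 or below and its z-score without drug lies between -2 and 2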

The opening 3 records as a preview:
Id1 (inhibitor of DNA binding 1, HLH protein) | combined z-score class = no change with or without drug; viability z-score with doxorubicin = -1.12; viability z-score without drug = -0.51
Tas2r110 (taste receptor, type 2, member 110) | combined z-score class = no change with or without drug; viability z-score with doxorubicin = 0.79; viability z-score without drug = 0.51
Qtman (queuosine-tRNA mannosyltransferase) | combined z-score class = high without drug; low with doxorubicin; viability z-score with doxorubicin = -2.02; viability z-score without drug = 2.19

The list itself, repeating the preview:
Id1 (inhibitor of DNA binding 1, HLH protein) | combined z-score class = no change with or without drug; viability z-score with doxorubicin = -1.12; viability z-score without drug = -0.51
Tas2r110 (taste receptor, type 2, member 110) | combined z-score class = no change with or without drug; viability z-score with doxorubicin = 0.79; viability z-score without drug = 0.51
Qtman (queuosine-tRNA mannosyltransferase) | combined z-score class = high without drug; low with doxorubicin; viability z-score with doxorubicin = -2.02; viability z-score without drug = 2.19
Ghdc (GH3 domain containing) | combined z-score class = no change with or without drug; viability z-score with doxorubicin = -1.8; viability z-score without drug = -0.84
Fstl3 (follistatin-like 3) | combined z-score class = no change with or without drug; viability z-score with doxorubicin = -0.45; viability z-score without drug = -0.51
Cela2a (chymotrypsin-like elastase family, member 2A) | combined z-score class = high cell count without drug only; viability z-score with doxorubicin = 0.22; viability z-score without drug = 3.2
Rab9 (RAB9, member RAS oncogene family) | combined z-score class = no change with or without drug; viability z-score with doxorubicin = 1.57; viability z-score without drug = 0.84
Crtc3 (CREB regulated transcription coactivator 3) | combined z-score class = no change with or without drug; viability z-score with doxorubicin = -1.35; viability z-score without drug = -1.69
Ranbp9 (RAN binding protein 9) | combined z-score class = no change with or without drug; viability z-score with doxorubicin = 0.11; viability z-score without drug = -0.34
4921504E06Rik (RIKEN cDNA 4921504E06 gene) | combined z-score class = high cell count with doxorubicin only; viability z-score with doxorubicin = 2.02; viability z-score without drug = 1.85
Rnps1 (RNA binding protein with serine rich domain 1) | combined z-score class = low cell count with doxorubicin only (active); viability z-score with doxorubicin = -3.71; viability z-score without drug = -1.85
Pik3r3 (phosphoinositide-3-kinase regulatory subunit 3) | combined z-score class = no change with or without drug; viability z-score with doxorubicin = -0.67; viability z-score without drug = -0.67
Fcrla (Fc receptor-like A) | combined z-score class = no change with or without drug; viability z-score with doxorubicin = 0.56; viability z-score without drug = 0
Sdc4 (syndecan 4) | combined z-score class = no change with or without drug; viability z-score with doxorubicin = -0.79; viability z-score without drug = -0.84
Rassf2 (Ras association (RalGDS/AF-6) domain family member 2) | combined z-score class = high cell count without drug only; viability z-score with doxorubicin = 0.45; viability z-score without drug = 2.87
Tpcn2 (two pore segment channel 2) | combined z-score class = no change with or without drug; viability z-score with doxorubicin = -0.45; viability z-score without drug = -1.18
Dlk1 (delta like non-canonical Notch ligand 1) | combined z-score class = no change with or without drug; viability z-score with doxorubicin = -0.67; viability z-score without drug = -1.18
Nkapl (NFKB activating protein-like) | combined z-score class = no change with or without drug; viability z-score with doxorubicin = -0.22; viability z-score without drug = 0.51
Tmem168 (transmembrane protein 168) | combined z-score class = no change with or without drug; viability z-score with doxorubicin = 0.45; viability z-score without drug = 0.17
Apom (apolipoprotein M) | combined z-score class = no change with or without drug; viability z-score with doxorubicin = -1.35; viability z-score without drug = -1.18
Or6c74 (olfactory receptor family 6 subfamily C member 74) | combined z-score class = low cell count with doxorubicin only (active); viability z-score with doxorubicin = -2.14; viability z-score without drug = 0.17
Tagln3 (transgelin 3) | combined z-score class = no change with or without drug; viability z-score with doxorubicin = 0.79; viability z-score without drug = 0.34
Il22ra2 (interleukin 22 receptor, alpha 2) | combined z-score class = no change with or without drug; viability z-score with doxorubicin = 0.11; viability z-score without drug = 0.34
Dnajc8 (DnaJ heat shock protein family (Hsp40) member C8) | combined z-score class = no change with or without drug; viability z-score with doxorubicin = 0.67; viability z-score without drug = 0.51
Lce1e (late cornified envelope 1E) | combined z-score class = high cell count without drug only; viability z-score with doxorubicin = 0.67; viability z-score without drug = 2.19
Or13a27 (olfactory receptor family 13 subfamily A member 27) | combined z-score class = no change with or without drug; viability z-score with doxorubicin = -0.67; viability z-score without drug = -0.34
Cryba1 (crystallin, beta A1) | combined z-score class = no change with or without drug; viability z-score with doxorubicin = -0.22; viability z-score without drug = 0.84
Aifm1 (apoptosis-inducing factor, mitochondrion-associated 1) | combined z-score class = no change with or without drug; viability z-score with doxorubicin = -1.57; viability z-score without drug = -1.01
